{
  "source": "PubChem BioAssay AID1347076",
  "about": "(National Center for Advancing Translational Sciences (NCATS), 2019)",
  "note": "The whole screen tested about 400,000 compounds, of which about 13,000 (3.2%) were called active. This list was built around the results that the source calls inconclusive (neither active nor inactive); the mix of calls is not that of the screen. Calls come from the whole dose curve; as a rule, active = well fitted cell-killing curve with a large enough effect; inconclusive = small, poorly fitted or top-dose-only effect, or effect the other way; inactive = flat fitted curve, though single readings scatter. Where the call is inconclusive, the potency comes from a doubtful curve fit. Potency is the fitted concentration of half-maximal effect.",
  "data": [
    {"experiment": "qHTS assay for MDR1-selective chemotherapeutics: Primary screen using the drug-selected MDR subline cells KB-V1; note: nearly all actives have a fitted effect of over 60% in size", "details": "KB-V1 MDR cells viability, CellTiter-Glo, 72 h; series mostly up to 46.1 µM", "in_short": "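Potencies derive from concentration-effect curves fitted to normalized luminescence (CellTiter-Glo) of KB-V1 cells treated for 72 h at 37 degrees C in phenol-red-free DMEM containing 10% FBS.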", "values": [
      {"smiles": "Cc1ccc(NC(=O)c2cc(-c3ccccc3O)n[nH]2)cc1Cl", "Potency": "inconclusive: 16.4 µM [rising, single point]"},
      {"smiles": "COc1cccc(NC(=O)CS(=O)(=O)c2cn(CC(=O)N3CCOCC3)c3ccccc23)c1", "Potency": "inconclusive: 20.6 µM [rising, single point]"},
      {"smiles": "CCN(CCCNC(=O)CCn1c(=O)[nH]c2ccccc2c1=O)c1ccccc1", "Potency": "inconclusive: 29.1 µM [cytotoxic, single point]"},
      {"smiles": "CCOC(=O)c1c(NC(=O)COC(=O)CCCOc2ccc(OC)cc2)sc(C(=O)NC)c1C", "Potency": "inactive"},
      {"smiles": "COc1ccc2cc(C3CC(c4ccco4)=NN3S(C)(=O)=O)c(Cl)nc2c1", "note": "(stereo unspecified)", "Potency": "inactive"},
      {"smiles": "COC(=O)c1ccc(OCC2c3cc(OC)c(OC)cc3CCN2C(=O)c2ccc(F)cc2)cc1", "note": "(stereo unspecified)", "Potency": "inconclusive: 29.1 µM [cytotoxic, single point]"},
      {"smiles": "Nc1ccccc1C#Cc1ccc([N+](=O)[O-])cc1", "Potency": "inactive"},
      {"smiles": "COc1ccc2nc(C)cc(N/N=C/c3cccc(OC)c3O)c2c1", "Potency": "inconclusive: 23.1 µM [cytotoxic, single point]"},
      {"smiles": "Cc1ccc(NC(=O)CN(C)C(=O)CCOc2cccc(C)c2)cc1", "Potency": "inconclusive: 16.4 µM [cytotoxic, single point]"},
      {"smiles": "Cc1ccc(NC(=O)CSc2nnc3scc(-c4ccccc4)n23)cc1", "Potency": "inactive"},
      {"smiles": "O=C(NCCC1=CCCCC1)C(=O)NCC(c1ccco1)N1CCN(c2ccc(F)cc2)CC1", "note": "(stereo unspecified)", "Potency": "active: 2.59 µM"},
      {"smiles": "COc1ccc(CCCC(=O)NCc2ccccc2)cc1C", "Potency": "active: 6.51 µM"},
      {"smiles": "Cc1cc(C)cc(C(=O)NCC(=O)OCN2C(=O)c3ccccc3C2=O)c1", "Potency": "inactive"},
      {"smiles": "Cc1cc(=O)[nH]c(SCC(=O)Nc2ccc3c(c2)OCCO3)n1", "Potency": "inconclusive: 29.1 µM [rising, partial curve, poor fit]"},
      {"smiles": "CCOC(=O)NC(c1cccc(Cl)c1)C1CCCCCC1=O", "note": "(stereo unspecified)", "Potency": "inconclusive: 29.1 µM [cytotoxic, single point]"},
      {"smiles": "CCSc1ncc(CO)c(N)n1", "Potency": "inconclusive: 25.9 µM [rising, single point]"},
      {"smiles": "Cc1ccc(-n2nnnc2-c2cccc(C)c2)cc1", "Potency": "inconclusive: 23.1 µM [cytotoxic, single point]"},
      {"smiles": "CC(Nc1c[nH]c(=O)[nH]c1=O)c1ccccc1", "note": "(stereo unspecified)", "Potency": "inconclusive: 29.1 µM [rising, single point]"},
      {"smiles": "S=c1[nH]c(-c2ccccc2)cn1/N=C/c1ccc(Br)cc1", "Potency": "inactive"},
      {"smiles": "C#CCNC(=O)C[C@@H]1C[C@@]2(C(=O)OC)CC(C)(C)CC=C2N(CCc2ccc(OC)c(OC)c2)C1=O", "Potency": "inconclusive: 11.6 µM [cytotoxic, partial curve, poor fit]"},
      {"smiles": "CCCCN(C)C(=O)c1sc(=O)n(CC(=O)c2ccccc2OC)c1C", "Potency": "inconclusive: 20.6 µM [cytotoxic, single point]"},
      {"smiles": "CCCNC(=O)c1nc(C)n(-c2cc(Cl)ccc2Cl)n1", "Potency": "inactive"},
      {"smiles": "O=C(NC1CCCC1)C(c1ccc(F)cc1)N(Cc1ccccc1Cl)C(=O)CCl", "note": "(stereo unspecified)", "Potency": "active: 14.6 µM"},
      {"smiles": "O=C(NCc1ccccn1)c1ccc2nc(C3CCCCC3)oc2c1", "Potency": "inactive"},
      {"smiles": "CCOC(=O)c1nnn(-c2nonc2N)c1COc1ccc(F)cc1", "Potency": "inconclusive: 18.4 µM [cytotoxic, single point]"},
      {"smiles": "Cc1cc(C(=O)N(Cc2nnc(-c3ccc(Cl)cc3)o2)C(C)C)c2ccccc2n1", "Potency": "inactive"},
      {"smiles": "CCc1cc(C(=O)Nc2cnn(Cc3ccccc3C)c2)no1", "Potency": "inconclusive: 14.6 µM [cytotoxic, single point]"},
      {"smiles": "CCCCn1c(N)c(N(CCOC)C(=O)CCS(=O)(=O)c2ccc(Cl)cc2)c(=O)[nH]c1=O", "Potency": "inactive"},
      {"smiles": "CC1CC(C)CN(C(=O)/C=C/c2ccc([N+](=O)[O-])s2)C1", "note": "(stereo unspecified)", "Potency": "inconclusive: 18.4 µM [cytotoxic, single point]"},
      {"smiles": "CC1=C(C(=O)Nc2ccccc2)C(c2cccn2C)n2ncnc2N1", "note": "(stereo unspecified)", "Potency": "inactive"},
      {"smiles": "CCCc1cc(=O)oc2c3c(cc(OCC(=O)NCc4ccncc4)c12)OC(C)(C)CC3", "Potency": "inconclusive: 29.1 µM [cytotoxic, single point]"},
      {"smiles": "CCN(CC)c1ccc(-c2nc(-c3ccccc3C)no2)cc1[N+](=O)[O-]", "Potency": "inactive"},
      {"smiles": "Cc1ccc(-n2c(SCC(=O)NCCN3C(=O)CSC3=O)nnc2-c2ccccc2)cc1", "Potency": "inconclusive: 13 µM [cytotoxic, partial curve]"},
      {"smiles": "NCC/C=C1/c2ccccc2CSc2ccccc21", "Potency": "inconclusive: 35.5 µM [cytotoxic, single point]"},
      {"smiles": "Fc1ccc(CN(Cc2ccccc2)C(c2cccs2)c2nnnn2C2CCCCC2)cc1", "note": "(stereo unspecified)", "Potency": "inconclusive: 20.6 µM [cytotoxic, single point]"},
      {"smiles": "O=C(NCCc1ccccc1Cl)c1ccc2c(c1)nc1n2CCCCC1", "Potency": "inconclusive: 20.6 µM [cytotoxic, single point]"},
      {"smiles": "CCN(CC)c1ccc(/C=N/Nc2nc(C)cc(=O)[nH]2)c(O)c1", "Potency": "inconclusive: 0.651 µM [cytotoxic, full curve]"},
      {"smiles": "COc1ccc(CN(C)CC(=O)Nc2ccc(SC(F)F)cc2)cc1OC", "Potency": "inconclusive: 9.2 µM [cytotoxic, partial curve]"},
      {"smiles": "O=C(NCCc1ccccc1)c1oc2ccccc2c1COc1ccccc1", "Potency": "inconclusive: 7.31 µM [cytotoxic, partial curve, poor fit]"},
      {"smiles": "S=c1[nH]nc(CSc2nc3ccccc3s2)o1", "Potency": "inactive"},
      {"smiles": "COc1ccc(-c2oc3c4c2C(=O)OCCOC4CCC3)cc1", "note": "(stereo unspecified)", "Potency": "inactive"},
      {"smiles": "Cc1nn2c(N3CCN(C(=O)c4ccco4)CC3)cc(C(C)(C)C)nc2c1-c1ccccc1", "Potency": "active: 18.4 µM"},
      {"smiles": "CC1CC(C)CN(c2ccc([N+](=O)[O-])nc2)C1", "note": "(stereo unspecified)", "Potency": "inconclusive: 29.1 µM [cytotoxic, single point]"},
      {"smiles": "Cc1ccc(SCc2cc(=O)c3c(=O)n(-c4ccccc4)[nH]c3[nH]2)cc1", "Potency": "inconclusive: 20.6 µM [rising, partial curve, poor fit]"},
      {"smiles": "CO/N=C/C(C(C)=O)C(=O)Nc1ccc(Cl)cc1Cl", "note": "(stereo unspecified)", "Potency": "inconclusive: 16.4 µM [cytotoxic, single point]"},
      {"smiles": "CN1CCN(c2sc(S(C)(=O)=O)nc2S(=O)(=O)c2ccc(Cl)cc2)CC1", "Potency": "inconclusive: 29.1 µM [cytotoxic, single point]"},
      {"smiles": "CN(C(=O)c1ccc(N2CCCCC2)c([N+](=O)[O-])c1)C1(C)CCS(=O)(=O)C1", "note": "(stereo unspecified)", "Potency": "inconclusive: 29.1 µM [cytotoxic, single point]"},
      {"smiles": "Cc1ccc(C2CC2c2n[nH]c(=S)n2-c2cccc(C)c2)cc1", "note": "(stereo unspecified)", "Potency": "inconclusive: 23.1 µM [cytotoxic, single point]"},
      {"smiles": "CCN(CC)S(=O)(=O)c1ccc2c(c1)nc(CCC(=O)Nc1ccc3c(c1)OCO3)n2CC", "Potency": "active: 14.6 µM"},
      {"smiles": "CCOC(=O)CC1CCCCN1C(=O)c1cc(COc2cccc3cnccc23)on1", "note": "(stereo unspecified)", "Potency": "inconclusive: 29.1 µM [cytotoxic, single point]"},
      {"smiles": "Cc1cc(SCC(=O)NC(=O)NCc2ccco2)nc2ccccc12", "Potency": "inconclusive: 18.4 µM [cytotoxic, single point]"},
      {"smiles": "O=C1CCC(C(=O)OCC(=O)C23CC4CC(CC(C4)C2)C3)N1", "note": "(stereo unspecified)", "Potency": "inconclusive: 23.1 µM [rising, single point]"},
      {"smiles": "CC1=C(C(=O)Nc2ccccn2)C(c2ccc(Br)cc2)n2ncnc2N1", "note": "(stereo unspecified)", "Potency": "inconclusive: 29.1 µM [cytotoxic, single point]"},
      {"smiles": "O=S(=O)(c1ccc2nc(N3CCN(c4cccc(Cl)c4)CC3)ccc2c1)N1CCCCC1", "Potency": "inconclusive: 16.4 µM [rising, single point]"},
      {"smiles": "Cc1c2cnn(CC(=O)NCCCN3CC(C)CC(C)C3)c(=O)c2c(C)n1Cc1ccccc1Cl", "note": "(stereo unspecified)", "Potency": "inactive"},
      {"smiles": "CCOc1ccc(C(=O)Nc2ccc(-c3nc4ccccc4s3)cc2)cc1[N+](=O)[O-]", "Potency": "inconclusive: 29.1 µM [rising, single point]"},
      {"smiles": "O=C(NCC(=O)N1CCN(c2ccccc2O)CC1)c1ccccc1", "Potency": "inactive"},
      {"smiles": "CCOC(=O)C1(CCOc2ccccc2)CCN(Cc2ccc(OC)cc2)CC1", "Potency": "inconclusive: 10.3 µM [cytotoxic, partial curve]"},
      {"smiles": "O=C(c1cc(COc2c(F)cccc2F)on1)N1CCC(c2ccccc2Cl)C1", "note": "(stereo unspecified)", "Potency": "inconclusive: 29.1 µM [cytotoxic, single point]"},
      {"smiles": "CCOC(=O)Cn1ncc2c3ccccc3n(CC(=O)OCC)c2c1=O", "Potency": "inconclusive: 29.1 µM [cytotoxic, single point]"},
      {"smiles": "Cc1ccc(NC(=O)CSc2nc(-c3ccco3)cc(C(F)(F)F)n2)cc1", "Potency": "inconclusive: 29.1 µM [cytotoxic, single point]"},
      {"smiles": "COc1ccc(-n2c(SCC(=O)Nc3sc4c(c3C#N)CCCC4)nnc2-c2ccccc2OC)cc1", "Potency": "inactive"},
      {"smiles": "C=CCn1cccc(C(=O)Nc2cc(OC)cc(OC)c2)c1=O", "Potency": "inactive"},
      {"smiles": "CCCOc1ccc(C2C3=C(Nc4nc(N)[nH]c(=O)c42)c2ccccc2C3=O)cc1", "note": "(stereo unspecified)", "Potency": "inactive"},
      {"smiles": "O=C(Cc1ccc(-n2cccc2)cc1)NCc1cccs1", "Potency": "active: 1.16 µM"},
      {"smiles": "c1cc2c(cc1C1=NNC(=NC3CC3)SC1)OCCO2", "Potency": "active: 8.2 µM"},
      {"smiles": "Cc1ccc(S(=O)(=O)N(C)CC(=O)N(C)Cc2cccs2)cc1", "Potency": "inactive"},
      {"smiles": "O=S(=O)(Nc1ncccn1)c1ccc(NS(=O)(=O)c2cc(Cl)ccc2Cl)cc1", "Potency": "inconclusive: 23.1 µM [rising, partial curve, poor fit]"},
      {"smiles": "O=C(c1ccc(COc2ccc(Cl)cc2)o1)N1CCN(Cc2ccc3c(c2)OCO3)CC1", "Potency": "active: 10.3 µM"},
      {"smiles": "CCOc1ccc(-n2nc3ccc(NC(=O)COc4ccc(OC)cc4)cc3n2)cc1", "Potency": "inconclusive: 29.1 µM [rising, single point]"},
      {"smiles": "O=C(NCc1ccccn1)/C(=N/O)c1ccccc1", "Potency": "inconclusive: 9.2 µM [rising, partial curve, poor fit]"}
    ]}
  ]
}
